# Assay results: patent publication US20180251495A1, “Skin-Penetrating Peptides and Compositions and Methods of Use Thereof” (The Regents of the University of California, priority 2015, published 2018)
# Entries after “also recorded” stand apart in the source; their conditions may differ. Not every detail of the peptide structures is certain; ends, links or a residue may be inferred. Some entries repeat one wording, which the source may state once for all of them. Where a SMILES comes first, the peptide text is derived from it. Bridges are numbered along the chain shown (N, C = ends).
# Legend:
# [1] = SPP-aided skin penetration of CsA in Franz diffusion cells; format: in vitro ADME, porcine; settings: for CsA skin penetration / permeation enhancement: CsA 5 mg/mL with SPP 25 mg/mL in 45% v/v Ethanol/PBS, 24 hours
# [2] = Binding of CsA to SPPs in solution by mass spectrometry; settings: SPP 25 mg/mL, CsA 5 mg/mL, 45% (v/v) ethanol/water
Compound,CsA skin penetration / permeation enhancement [1],binding to CsA in solution [2],CsA penetration in the epidermis ([1]; p<0.05 compared to SPACE™ peptide)
"C[C@H](N)C(=O)N[C@H]1CSSC[C@@H](C(=O)NCC(=O)O)NC(=O)[C@H](CC(N)=O)NC(=O)[C@H](Cc2c[nH]cn2)NC(=O)[C@H](CC(N)=O)NC(=O)[C@H]([C@@H](C)O)NC(=O)[C@H](CO)NC(=O)[C@H](C)NC(=O)[C@H](CO)NC1=O [SP7-5, ACSASTNHNCG] (H-ACSASTNHNCG-OH; disulfide 2-10; N-terminus and C-terminus assumed)",on par with SPACE™; also recorded: equally to or better than SPACE™,,
"CC(C)C[C@@H]1NC(=O)[C@H]([C@@H](C)O)NC(=O)[C@H](C)NC(=O)[C@H](CO)NC(=O)[C@@H](NC(=O)[C@H](C)N)CSSC[C@@H](C(=O)NCC(=O)O)NC(=O)[C@H](CO)NC(=O)[C@H](Cc2c[nH]cn2)NC(=O)[C@H](CCC(N)=O)NC1=O [SP7-1, ACSATLQHSCG] (H-ACSATLQHSCG-OH; disulfide 2-10; N-terminus and C-terminus assumed)",on par with SPACE™; also recorded: equally to or better than SPACE™,formation of a non-covalent binary complex,
"C[C@H](N)C(=O)N[C@H]1CSSC[C@@H](C(=O)NCC(=O)O)NC(=O)[C@H]([C@@H](C)O)NC(=O)[C@H](CO)NC(=O)[C@H](CCCNC(=N)N)NC(=O)[C@H](C)NC(=O)[C@H](CCC(N)=O)NC(=O)[C@H](Cc2c[nH]cn2)NC(=O)[C@H](C)NC(=O)[C@H](CC(N)=O)NC1=O [SP8-1, ACNAHQARSTCG] (H-ACNAHQARSTCG-OH; disulfide 2-11; N-terminus and C-terminus assumed)",equally to or better than SPACE™; also recorded: rather superficial penetration of CsA,,outstanding penetration in the epidermis
